Values quoted from earlier work, collected in patent US20130243872A1, “PHARMACEUTICAL COMPOSITE FORMULATION COMPRISING HMG-COA REDUCTASE INHIBITOR AND ASPIRIN” (HANMI SCIENCE CO., LTD, priority 2010, published 2013).

Conditions: crystalline versus amorphous form

Increase in Cmax (in vivo absorption rate): ~50%
Compound: CC(C)c1c(C(=O)Nc2ccccc2)c(-c2ccccc2)c(-c2ccc(F)cc2)n1CC[C@@H](O)C[C@@H](O)CC(=O)O [crystalline form of atorvastatin, atorvastatin]
